Assay results as given in the supplement of paper PMC12823440, “Inhibitors supercharge kinase turnover through native proteolytic circuits” (Nature, 2025).
Structures can show the parent of a compound that is named as a salt. Some of the results follow. The calls rarely recur for the same compound in another form.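 In K562 cells expressing nanoluciferase-fused kinases, luminescence was recorded at 4 h intervals between 2 and 18 h, normalized as percent of control with DMSO at 100% and a positive control at 0%. A significant (2 sigma) signal drop marks a time point as decreased. The authors' rule for a hit is not shown and takes in more than the number of time points.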

Target: EGFR_L718V (UniProt P00533)
Assay: kinase-Nluc reporter destabilization hit call (1 = scored as downregulated) (binary); higher = compound decreases kinase abundance
Details: K562; 2-18 h

kinase-Nluc reporter destabilization hit call, inactive:
CC#CC(=O)N[C@H]1CCCN(c2c(F)cc(C(N)=O)c3[nH]c(C)c(C)c23)C1 [Branebrutinib] (10 µM) 0
O=C1NC(=NCc2cccs2)S/C1=C\c1ccc2ncccc2c1 (10 µM) 0
Cn1c(=O)n(-c2ccc(C(C)(C)C#N)cc2)c2c3cc(-c4cnc5ccccc5c4)ccc3ncc21 [Dactolisib (Tosylate)] (10 µM) 0
COC(=O)c1ccc2c(C(=Nc3ccc(N(C)C(=O)CN4CCN(C)CC4)cc3)c3ccccc3)c(O)[nH]c2c1 [Nintedanib] (2.5 µM) 0
COc1cc2ncnc(Nc3ccc(O)cc3)c2cc1OC (10 µM) 0
O=C(c1ccc(-c2ccc(Cl)cc2)o1)N(Cc1ccccn1)c1ccc(N2CCNCC2)cc1 [MK2-IN-1 (hydrochloride)] (10 µM) 0
CN1CCN(S(=O)(=O)c2ccc(-c3cnc(N)c(C(=O)Nc4cccnc4)n3)cc2)CC1 (10 µM) 0
CN(C)C[C@@H]1CCn2cc(c3ccccc32)C2=C(C(=O)NC2=O)c2cn(c3ccccc23)CCO1 [Ruboxistaurin (hydrochloride)] (10 µM) 0
COc1ccc(Oc2cc(NCCC(F)(F)F)c3ncc(-c4ccc(C(=O)NC5CC5)c(C)c4)n3n2)c(F)c1F (2.5 µM) 0
CCCCNc1ncc(-c2ccc(CN3CCOCC3)cn2)c(NC2CCC(O)CC2)n1 (centres undefined) (10 µM) 0
O=C(Nc1cc(C(F)(F)F)ccc1N1CCN(Cc2ccccn2)CC1)c1ccc(-c2ccncc2)o1 (10 µM) 0
CC(C)(/C=C(\C#N)C(=O)N1CCC[C@@H](n2nc(-c3ccc(Oc4ccccc4)cc3F)c3c(N)ncnc32)C1)N1CCN(C2COC2)CC1 (2.5 µM) 0
CNC(=O)c1cccc2cc(Oc3ccnc4cc(OCC5(N)CC5)c(OC)cc34)ccc12 [Lucitanib] (10 µM) 0
COc1cc(F)cc([C@@H](CO)NC(=O)[C@@H](C)N2Cc3ccc(-c4nc(NC5CCOCC5)ncc4Cl)cc3C2=O)c1 [ERK1/2 inhibitor 2] (10 µM) 0
O=c1cc(-c2ccccc2)oc2c(O)c(O)ccc12 [7,8-Dihydroxyflavone] (10 µM) 0
C=CC(=O)N1CC[C@H](n2nc(C#Cc3cc(OC)cc(OC)c3)c3c(N)ncnc32)C1 [Futibatinib] (10 µM) 0
O=C1Nc2ccccc2/C1=C/c1ccc(F)cc1 (10 µM) 0
CN(C)Cc1ccc(-c2cnn3c(-c4cccc(NC(=O)c5cccc(C(F)(F)F)c5)c4)ccnc23)cc1 (2.5 µM) 0
Cc1c[nH]c(/C=C2\C(=O)Nc3ccccc32)c1CCC(=O)O (10 µM) 0
CC(C)c1ccc2oc3nc(N)c(C(=O)O)cc3c(=O)c2c1 [Amlexanox] (10 µM) 0
NS(=O)(=O)c1ccc(Nc2nc(OCC3CCCCC3)c3[nH]cnc3n2)cc1 (10 µM) 0
Cn1nc(C(C)(C)C)cc1NC(=O)Nc1ccc(Oc2ccncc2)cc1 (10 µM) 0
COc1ccc(F)c(F)c1C(=O)c1cnc(NC2CCN(S(C)(=O)=O)CC2)nc1N (2.5 µM) 0
COc1cc(C(=O)NC2CCN(C)CC2)ccc1Nc1ncc2c(n1)N(C1CCCC1)CC(F)(F)C(=O)N2C (10 µM) 0
CCN1C(=O)N(c2c(F)c(OC)cc(OC)c2F)Cc2cnc3[nH]c(CN4CCOCC4)cc3c21 [Pemigatinib] (10 µM) 0
COc1cc(Oc2ccnc3cc(OC)c(OC)cc23)ccc1NC(=O)NC(C)c1nccs1 (centres undefined) (2.5 µM) 0
C=CC(=O)N1C[C@H](Nc2ncnc3[nH]ccc23)CC[C@@H]1C [Ritlecitinib] (10 µM) 0
CC(C)(C)S(=O)(=O)c1cc2c(Nc3ccc4scnc4c3)ncnc2cc1OCCO (2.5 µM) 0
O=C(NOC[C@H](O)CO)c1ccc(F)c(F)c1Nc1ccc(I)cc1F (2.5 µM) 0
Cc1cccc([C@@H](CO)NC(=O)[C@@H](C)N2Cc3ccc(-c4nc(NC5CCOCC5)ncc4Cl)cc3C2=O)c1 [ERK1/2 inhibitor 1] (10 µM) 0
CNC(=O)c1cc(Oc2ccc(NC(=O)Nc3cc(C(C)(C)C)nn3-c3ccc4ncccc4c3)c(F)c2)ccn1 [Rebastinib] (2.5 µM) 0
CCCn1cnc2c(NCc3ccccc3)nc(NC(CC)CO)nc21 (centres undefined) [Ca2+ channel agonist 1] (2.5 µM) 0
Brc1c(Br)c(Br)c2n[nH]nc2c1Br (10 µM) 0
C=CC(=O)Nc1cccc(Nc2nc(Nc3ccc(OCCOC)cc3)ncc2F)c1 [Spebrutinib] (10 µM) 0
CC(C)=CC/C=C(\C)[C@H]1CC[C@]2(C)[C@@H]1[C@H](O)C[C@@H]1[C@@]3(C)CC[C@H](O[C@@H]4O[C@H](CO)[C@@H](O)[C@H](O)[C@H]4O[C@@H]4O[C@H](CO)[C@@H](O)[C@H](O)[C@H]4O)C(C)(C)[C@@H]3CC[C@]12C [Ginsenoside Rg5] (10 µM) 0
Cc1ncc(-c2ccnc(Nc3ccc(S(C)(=O)=O)cc3)n2)n1C(C)C (2.5 µM) 0
CN(C)CCOc1ccc(-c2nc(-c3ccncc3)c(-c3ccc4c(c3)CC/C4=N\O)[nH]2)cc1 (10 µM) 0
CCN(CCCOc1ccc2c(Nc3cc(CC(=O)Nc4cccc(F)c4)[nH]n3)ncnc2c1)CCOP(=O)(O)O [Barasertib] (10 µM) 0
C=CC(=O)N[C@H]1COC[C@H]1Nc1ncc2cc(-c3c(Cl)c(OC)cc(OC)c3Cl)c(=O)n(C)c2n1 (10 µM) 0

Two records drawn at random from those above, as already listed:
kinase-Nluc reporter destabilization hit call, inactive:
COc1cc2ncnc(Nc3ccc(O)cc3)c2cc1OC (10 µM) 0
Cc1cccc([C@@H](CO)NC(=O)[C@@H](C)N2Cc3ccc(-c4nc(NC5CCOCC5)ncc4Cl)cc3C2=O)c1 [ERK1/2 inhibitor 1] (10 µM) 0
